The values that follow come from paper doi:10.1101/2025.05.20.655051.

To fix the notation:
T1: VIPP1-GFP (Vesicle Inducing Protein in Plastids 1 tagged by GFP at its C-terminus) (Arabidopsis thaliana) (UniProt O80796)
T1 sequence: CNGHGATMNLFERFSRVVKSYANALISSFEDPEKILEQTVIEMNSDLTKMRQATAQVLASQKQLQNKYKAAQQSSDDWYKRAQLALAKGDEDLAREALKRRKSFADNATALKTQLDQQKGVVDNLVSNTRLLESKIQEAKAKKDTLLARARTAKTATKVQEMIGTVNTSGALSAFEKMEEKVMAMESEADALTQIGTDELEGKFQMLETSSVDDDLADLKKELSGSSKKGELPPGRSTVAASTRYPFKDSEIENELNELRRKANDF

B1: MFP1 (protein, UniProt Q9LW85 96-726)
chain: DERGNEIKTSKVDLETEVAVVSEGTSPNPFLALLNGLGIFSAGVLGALYALARQDTKAAEETIESLKNQLKDRERALVLKEKDFEAKLQHEQEERKKEVEKAKEEQLSLINQLNSAKDLVTELGRELSSEKKLCEKLKDQIESLENSLSKAGEDKEALETKLREKLDLVEGLQDRINLLSLELKDSEEKAQRFNASLAKKEAELKELNSIYTQTSRDLAEAKLEIKQQKEELIRTQSELDSKNSAIEELNTRITTLVAEKESYIQKLDSISKDYSALKLTSETQAAADAELISRKEQEIQQLNENLDRALDDVNKSKDKVADLTEKYEDSKRMLDIELTTVKNLRHELEGTKKTLQASRDRVSDLETMLDESRALCSKLESELAIVHEEWKEAKERYERNLDAEKQKNEISASELALEKDLRRRVKDELEGVTHELKESSVKNQSLQKELVEIYKKVETSNKELEEEKKTVLSLNKEVKGMEKQILMEREARKSLETDLEEAVKSLDEMNKNTSILSRELEKVNTHASNLEDEKEVLQRSLGEAKNASKEAKENVEDAHILVMSLGKEREVLEKKVKKLEEDLGSAKGEILRMRSQPDSVKAVNSTDNKEKSDNTVTVKKVVRRRKSSTSS
B2: lipoxygenase 2 (LOX2) (enzyme, UniProt P38418 57-896)
chain: ANIEQEGNTVKEPIQNIKVKGYITAQEEFLEGITWSRGLDDIADIRGRSLLVELISAKTDQRITVEDYAQRVWAEAPDEKYECEFEMPEDFGPVGAIKIQNQYHRQLFLKGVELKLPGGSITFTCESWVAPKSVDPTKRIFFSDKSYLPSQTPEPLKKYRKEELETLQGKNREEVGEFTKFERIYDYDVYNDVGDPDNDPELARPVIGGLTHPYPRRCKTGRKPCETDPSSEQRYGGEFYVPRDEEFSTAKGTSFTGKAVLAALPSIFPQIESVLLSPQEPFPHFKAIQNLFEEGIQLPKDAGLLPLLPRIIKALGEAQDDILQFDAPVLINRDRFSWLRDDEFARQTLAGLNPYSIQLVEEWPLISKLDPAVYGDPTSLITWEIVEREVKGNMTVDEALKNKRLFVLDYHDLLLPYVNKVRELNNTTLYASRTLFFLSDDSTLRPVAIELTCPPNINKPQWKQVFTPGYDATSCWLWNLAKTHAISHDAGYHQLISHWLRTHACTEPYIIAANRQLSAMHPIYRLLHPHFRYTMEINARARQSLVNGGGIIETCFWPGKYALELSSAVYGKLWRFDQEGLPADLIKRGLAEEDKTAEHGVRLTIPDYPFANDGLILWDAIKEWVTDYVKHYYPDEELITSDEELQGWWSEVRNIGHGDKKDEPWWPVLKTQDDLIGVVTTIAWVTSGHHAAVNFGQYGYGGYFPNRPTTTRIRMPTEDPTDEALKEFYESPEKVLLKTYPSQKQATLVMVTLDLLSTHSPDEEYIGEQQEASWANEPVINAAFERFKGKLQYLEGVIDERNVNITLKNRAGAGVVKYELLKPTSEHGVTGMGVPYSISI
B3: VPL3/VIA1 (At5g03900) (protein, UniProt Q8GW20 64-523)
chain: ASLDKVSGAIKPGGLVESDKLPTDVRKRAMDAVDECGRRVTVGDVASRGGLKVTEAQTALQAIAADTDGFLEVSDEGDVLYVFPRDYRTKLAAKSLRIQIEPFLEKAKGAVDYLARVSFGTALIASIVIVYTSIIALLSSKSEDDNRQRRRGRSYDSGFNFYINPVDLLWYWDPNYYNRRRAREDEGKGMNFIESVFSFVFGDGDPNQGIEEERWQMIGQYITSRGGVVAADELAPYLDVPSSKSAMNDESYILPVLLRFDGQPELDEEGNILYCFPSLQRTASGSSRRKEYVGKWFDWVADMEKFFKEKKWQFSKTSTSERALVIGLGAVNLFGVIVLNTLLNEMSVRPGGFLTFVKNIYPLLQIYAGSFFTIPLIRWFSIKRKNNQIENRNKARLQFARALESPDIALRRKLLSARDMAQKTVIGKDRIVYSTDRDMMEQNYETDEWDRRFKELEKSD
B4: cpHsc70-1 (chloroplast HSP70 isoform 1) (protein, UniProt Q9STW6 93-718)
chain: AAMEGGKPTIVTNAEGQRTTPSVVAYTKSGDRLVGQIAKRQAVVNPENTFFSVKRFIGRKMNEVDEESKQVSYRVVRDENNNVKLECPAINKQFAAEEISAQVLRKLVDDASRFLNDKVTKAVITVPAYFNDSQRTATKDAGRIAGLEVLRIINEPTAASLAYGFDRKANETILVFDLGGGTFDVSVLEVGDGVFEVLSTSGDTHLGGDDFDKRVVDWLAAEFKKDEGIDLLKDKQALQRLTEAAEKAKIELSSLTQTNMSLPFITATADGPKHIETTLTRAKFEELCSDLLDRVRTPVENSLRDAKLSFKDIDEVILVGGSTRIPAVQELVRKVTGKEPNVTVNPDEVVALGAAVQAGVLAGDVSDIVLLDVTPLSIGLETLGGVMTKIIPRNTTLPTSKSEVFSTAADGQTSVEINVLQGEREFVRDNKSLGSFRLDGIPPAPRGVPQIEVKFDIDANGILSVSAVDKGTGKKQDITITGASTLPKDEVDQMVQEAERFAKDDKEKRDAIDTKNQADSVVYQTEKQLKELGEKIPGEVKEKVEAKLQELKDKIGSGSTQEIKDAMAALNQEVMQIGQSLYNQPGAGGPGAGPSPGGEGASSGDSSSSKGGDGDDVIDADFTDSQ

These are yes or no findings as the source states them, for the method shown. In cells and extracts the contact can be indirect. A yes stands for co-enrichment or nearness to the bait. Other partners may have been found. For part of these data: No binding means not detected with the bait. For part of these data: Where a sequence is shown, tags or fusion partners need not be part of it.

The target of the first experiment is T1, VIPP1-GFP (Vesicle Inducing Protein in Plastids 1 tagged by GFP at its C-terminus) (Arabidopsis thaliana). The experiment is described as follows: affinity purification with mass spectrometry.
For the molecule B1, the binding entry is given as “binds”.

Turning to B2, the binding result was “binds”.

Regarding B3, the binding result is reported as “binds”.

For the molecule B4, the binding entry was “binds”.

A further experiment has as its target VIPP1-His (VIPP1 C-terminally tagged by 6xHis) (Arabidopsis thaliana) (UniProt O80796). Put plainly: affinity purification with mass spectrometry.
Take B1: the binding result is on record as “binds”.

As to B4, the binding result is “binds”.

For the next experiment, the target named is VIPP1ΔC-GFP (VIPP1 lacking Vc, tagged by GFP at its C-terminus) (Arabidopsis thaliana). The experiment is described as follows: affinity purification with mass spectrometry.
Turning to B1, the binding entry was “no binding”.

For B2, the binding entry was “binds”.

Consider B3, for which the binding entry is given as “binds”.
